Results deposited as PubChem BioAssay AID686943 (Drosophila RNAi Screening Center, 2013)
In all, the deposit lists about 23,000 reagents; shown is a random part of those that have a named target and a result. 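Extra replicates exist only for a retested subset of genes; insulin dose and duration not given; both raised and lowered dpERK matter.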 Not all columns of the deposit are shown. Reagent sequences are not shown. Not stated in the record: the amount of reagent, the time to read-out.

Test: 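Search across the genome for regulators of signalling from receptor tyrosine kinase to ERK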 (primary screen)
System: Drosophila S2R+ haemocyte-like cells expressing YFP-tagged ERK (Rolled)
Reagent: long dsRNA against Drosophila genes
Treatment: insulin stimulation versus unstimulated cells; dose and duration not given
Read-out: 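Per-plate z-scores of phospho-ERK immunostaining normalised to YFP-tagged ERK, measured with and without insulin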
Direction: replicate 1, z-score of dpERK with insulin: higher = more active ERK per ERK-YFP after insulin

CG6689 [DRSC16095]
- replicate 1, z-score of dpERK with insulin: -0.73

Gcn2 [DRSC16678]
- replicate 1, z-score of dpERK with insulin: 0.29

CG7806 [DRSC03071]
- replicate 1, z-score of dpERK with insulin: 0.43

Tmtc4 (Transmembrane O-mannosyltransferase targeting cadherins 4) [DRSC15702]
- replicate 1, z-score of dpERK with insulin: -0.6

LManV (Lysosomal alpha-mannosidase V) [DRSC03223]
- replicate 1, z-score of dpERK with insulin: -0.73

Sr-CII (Scavenger receptor class C, type II) [DRSC07557]
- replicate 1, z-score of dpERK with insulin: -0.13

dila (dilatory) [DRSC06607]
- replicate 1, z-score of dpERK with insulin: 0.76

CG12341 [DRSC06133]
- replicate 1, z-score of dpERK with insulin: 1.07

Archease [DRSC16025]
- replicate 1, z-score of dpERK with insulin: 0.39

CG8197 [DRSC07105]
- replicate 1, z-score of dpERK with insulin: 0.48

CG17472 [DRSC02622]
- replicate 1, z-score of dpERK with insulin: 0.93

a (arc) [DRSC04667]
- replicate 1, z-score of dpERK with insulin: -0.34

a (arc) [DRSC04668]
- replicate 1, z-score of dpERK with insulin: 0.35

CG4318 [DRSC19887]
- replicate 1, z-score of dpERK with insulin: 0.02

Vha16-5 (Vacuolar H[+] ATPase 16kD subunit 5) [DRSC02986]
- replicate 1, z-score of dpERK with insulin: 0.86

CG43101 [DRSC05520]
- replicate 1, z-score of dpERK with insulin: -0.89

CG3618 [DRSC11746]
- replicate 1, z-score of dpERK with insulin: -0.17

CG11382 [DRSC18624]
- replicate 1, z-score of dpERK with insulin: 0.51

The list goes on; the last 2 above are carried over.
CG3618 [DRSC11746]
- replicate 1, z-score of dpERK with insulin: -0.17

CG11382 [DRSC18624]
- replicate 1, z-score of dpERK with insulin: 0.51

ppk24 (pickpocket 24) [DRSC15093]
- replicate 1, z-score of dpERK with insulin: 7.03

NP15.6 [DRSC16756]
- replicate 1, z-score of dpERK with insulin: -0.13

CG10650 [DRSC02085]
- replicate 1, z-score of dpERK with insulin: 0.21

CG30338 [DRSC05166]
- replicate 1, z-score of dpERK with insulin: -0.11

Coprox (Coproporphyrinogen oxidase) [DRSC01996]
- replicate 1, z-score of dpERK with insulin: 0.61

Tom70 (Translocase of outer membrane 70) [DRSC02990]
- replicate 1, z-score of dpERK with insulin: 0.68

mtSSB (mitochondrial single stranded DNA-binding protein) [DRSC17005]
- replicate 1, z-score of dpERK with insulin: 0.14

Eato (Engulfment ABC Transporter in the ovary) [DRSC01891]
- replicate 1, z-score of dpERK with insulin: -0.42

Eato (Engulfment ABC Transporter in the ovary) [DRSC03061]
- replicate 1, z-score of dpERK with insulin: -0.05

Helz (Helicase with zinc finger) [DRSC11072]
- replicate 1, z-score of dpERK with insulin: 0.06

Spindly [DRSC00430]
- replicate 1, z-score of dpERK with insulin: -2

Gadd45 (Growth arrest and DNA damage-inducible 45) [DRSC06033]
- replicate 1, z-score of dpERK with insulin: 0.25

CG32248 [DRSC08102]
- replicate 1, z-score of dpERK with insulin: -0.09
